Data published in PubChem BioAssay AID493014 (National Center for Advancing Translational Sciences (NCATS), 2011).
“And” between values parts separate entries of the source, which are not always exact repeats. Equal values may be shown once. The list shows a part of the results. These are further read-outs of the screen, such as a control signal, another cell line or another target. No call is given for them. Most of these compounds were active or inconclusive in the main read-out, so they are no random draw. Words in brackets tell the shape of the fitted curve; partial curves, single points and poor fits give uncertain potencies.

Test: qHTS Assay to Find Inhibitors of Chronic Active B-Cell Receptor Signaling
Conditions: ABC-DLBCL IkBa-CBG/CBR reporter, luminescence ratio (green luciferase fused to IkBa over red control in TMD8 lymphoma cells), 4 h
Method in brief: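 TMD8 human ABC-DLBCL cells with doxycycline-inducible IκBα–green luciferase fusion and unfused red luciferase, in 0.5% FBS medium; compounds up to 46 uM, 4 h at 37C. Green/red luminescence ratio, filter-overlap corrected, fitted to concentration-response curves.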

[1] = measured here: CBR red luminescence, cell number

| Structure (SMILES) | AC50 [1] | AC50 (measured here: IkBa-CBG green luminescence) |
| --- | --- | --- |
| CN(C)c1cccc2c1c(NC(=O)Nc1ccccc1)nn2C | 3.16 µM [rising, partial curve, poor fit] |  |
| O=S(=O)(Nc1cc(C(F)(F)F)ccc1N1CCOCC1)c1ccc2ccccc2c1 | 29.1 µM [falling, single point] |  |
| CC(C)(C)OC(=O)NCCCCCNC(=O)c1[nH]cnc1C(=O)Nc1ccccc1 | 20.6 µM [falling, single point] |  |
| O=C(CSCc1ccc(Cl)cc1)Nc1cccc(C(=O)Nc2ccccc2C(=O)O)c1 | 20.6 µM [falling, partial curve, poor fit] |  |
| COc1ccc(/C(N)=N/OC(=O)C2CCCCC2)cc1OC | 2.24 µM [rising, partial curve, poor fit] |  |
| CCC(=O)N(Cc1cc2ccc(C)cc2n2nnnc12)C1CCCCC1 | 0.092 µM [rising, full curve] |  |
| Cc1cc(C)cc(N(CC(=O)Nc2ccccc2)C2=NC3CS(=O)(=O)CC3S2)c1 (stereo not drawn) | 12.6 µM [falling, partial curve, poor fit] |  |
| O=C(CSc1nnc2ncccn12)N1CCCCCC1 | 32.6 µM [rising, single point] |  |
| COc1ccc(C#Cc2c(-c3ccccc3)n(-c3ccccc3)c3ccc(CO)cc23)cc1 | 9.2 µM [rising, partial curve] |  |
| O=C(Nc1ccccc1)Nc1n[nH]c2nnc(-c3ccccc3)c(-c3ccccc3)c12 | 11.2 µM [falling, partial curve, poor fit] |  |
| Cn1c2ccsc2c2ncn(Cc3ccc(F)cc3)c(=O)c21 | 1.84 µM [rising, full curve] and 2.91 µM [rising, partial curve, poor fit] |  |
| C[C@H]1C=C(C(=O)NC2CC2)O[C@@H](OCc2ccc(CO)cc2)C1 | 22.4 µM [rising, partial curve, poor fit] |  |
| Cc1cccc(-c2nc(=S)c3c(o2)CCCC3)c1 | 25.9 µM [rising, single point] |  |
| COc1ccc(NC(=O)Nc2cccnc2)cc1 | 10 µM [falling, partial curve, poor fit] |  |
| O=C1Nc2ccccc2C1=Nc1ccc(Cl)cc1 | 1.26 µM [falling, full curve, poor fit] |  |
| Cc1ccc(C(=O)Nc2ccccc2-c2ccccc2)cc1S(=O)(=O)Nc1ccccc1 | 16.4 µM [falling, single point] |  |
| OC(COc1ccc2ccccc2c1)CN1CCCC1 (stereo not drawn) | 2.82 µM [falling, partial curve] |  |
| CCc1ccc(Oc2cc(Cl)nc(N)n2)cc1 | 4.61 µM [rising, full curve, poor fit] |  |
| NNC(=O)c1[nH]c2ccc(Cl)cc2c1-c1ccccc1 | 3.16 µM [rising, full curve] | 3.98 µM [falling, full curve] |
| Cc1ccc(CNC(=O)c2cn(C)c3ccc(S(=O)(=O)N4CCOCC4)cc3c2=O)cc1 | 3.16 µM [falling, single point] |  |
| CCn1c(NCc2cc(OC)c(OC)c(OC)c2)nc2ccccc21 | 0.562 µM [rising, full curve, poor fit] |  |

A second format for some results above.
Structure (SMILES)	AC50 [1]	AC50 (measured here: IkBa-CBG green luminescence)
CN(C)c1cccc2c1c(NC(=O)Nc1ccccc1)nn2C	3.16 µM [rising, partial curve, poor fit]	
O=S(=O)(Nc1cc(C(F)(F)F)ccc1N1CCOCC1)c1ccc2ccccc2c1	29.1 µM [falling, single point]	
CC(C)(C)OC(=O)NCCCCCNC(=O)c1[nH]cnc1C(=O)Nc1ccccc1	20.6 µM [falling, single point]	
Cc1cc(C)cc(N(CC(=O)Nc2ccccc2)C2=NC3CS(=O)(=O)CC3S2)c1 (stereo not drawn)	12.6 µM [falling, partial curve, poor fit]	
COc1ccc(C#Cc2c(-c3ccccc3)n(-c3ccccc3)c3ccc(CO)cc23)cc1	9.2 µM [rising, partial curve]	
Cn1c2ccsc2c2ncn(Cc3ccc(F)cc3)c(=O)c21	1.84 µM [rising, full curve] and 2.91 µM [rising, partial curve, poor fit]	
Cc1cccc(-c2nc(=S)c3c(o2)CCCC3)c1	25.9 µM [rising, single point]	
COc1ccc(NC(=O)Nc2cccnc2)cc1	10 µM [falling, partial curve, poor fit]	
O=C1Nc2ccccc2C1=Nc1ccc(Cl)cc1	1.26 µM [falling, full curve, poor fit]	
OC(COc1ccc2ccccc2c1)CN1CCCC1 (stereo not drawn)	2.82 µM [falling, partial curve]	
NNC(=O)c1[nH]c2ccc(Cl)cc2c1-c1ccccc1	3.16 µM [rising, full curve]	3.98 µM [falling, full curve]
Cc1ccc(CNC(=O)c2cn(C)c3ccc(S(=O)(=O)N4CCOCC4)cc3c2=O)cc1	3.16 µM [falling, single point]	
CCn1c(NCc2cc(OC)c(OC)c(OC)c2)nc2ccccc21	0.562 µM [rising, full curve, poor fit]	

Next records.

| Structure (SMILES) | AC50 [1] | AC50 (measured here: IkBa-CBG green luminescence) |
| --- | --- | --- |
| CCn1cc(C(=O)NCCCOC)c2cc(OC)c(OC)cc2c1=O | 0.366 µM [falling, full curve, poor fit] |  |
| CCOc1cc(C(=O)Nc2nnc(CC)s2)ccc1OCC(=O)N1CCOCC1 | 3.55 µM [falling, partial curve, poor fit] |  |
| COC(=O)c1cc(C)cc(=O)o1 | 0.112 µM [rising, full curve, poor fit] |  |
| NS(=O)(=O)c1ccc(NC(=S)NNC(=O)c2cccs2)cc1 | 11.2 µM [falling, partial curve] |  |
| Cc1cc(C)n2c(Nc3ccc4c(c3)OCCO4)c(-c3ccco3)nc2n1 | 20.6 µM [rising, single point] |  |
| Cc1cccc(NC(=O)CN(C)S(=O)(=O)c2cccc3cccnc23)c1C | 0.112 µM [rising, full curve, poor fit] |  |
| Cc1ccc2c(c1)[C@H]1[C@H](CO2)[C@H](c2ccccc2)[C@]2(C)C(=O)Nc3cc(F)c(F)cc3C(=O)N12 | 2.06 µM [falling, full curve] |  |
| Nc1nnnn1/N=C/c1cc([N+](=O)[O-])ccc1O | 20 µM [falling, single point] |  |
| CCOc1cc(/C=N/Nc2cc(C)nc3ccc(C)cc23)ccc1O | 35.5 µM [falling, single point] |  |
| Cc1ccc(NC(=O)NNC(=O)c2cc3ccccc3cc2O)c(C)c1 | 35.5 µM [rising, single point] |  |
| COc1ccc(-c2nnc(Nc3nc4c(OC)cccc4s3)o2)cc1 | 1.26 µM [falling, full curve] |  |
| CN(C)CCCn1c(N)c(C#N)c2nc3ccccc3nc21 | 14.1 µM [falling, partial curve] |  |
| CN(c1cccc(NC(=O)c2ccc(C(C)(C)C)cc2)c1)S(C)(=O)=O | 11.2 µM [falling, partial curve] |  |
| O=C(/C=C/c1ccccc1)Nc1cccnc1Cl | 14.1 µM [falling, partial curve] |  |
| N=c1n(CCO)c2ccccc2n1CCOc1ccc(Cl)cc1Cl | 12.6 µM [falling, partial curve] |  |
| CCn1c2ccccc2c2cc(/C=N/NC(=O)c3ccc(O)cc3)ccc21 | 2.06 µM [falling, full curve] |  |
| COc1cc2c(cc1OC)CN(C(=O)CCCOc1ccc(Cl)cc1Cl)CC2 | 29.1 µM [falling, single point] |  |
| Nc1cccn2c(-c3ccc(Cl)cc3)cnc12 | 35.5 µM [falling, single point] |  |
| CSc1nc(N)nc(SC2C=CCCC2)c1C#N (stereo not drawn) | 10.3 µM [rising, partial curve, poor fit] |  |
| NC(=O)c1sc2nc(-c3ccco3)ccc2c1N | 22.4 µM [falling, single point] |  |
| O=C(CNC(=O)c1ccccc1)OCc1nnc(-c2ccccc2)o1 | 5.8 µM [rising, partial curve, poor fit] |  |
